{"sequences": {"note": "The chains behind the UniProt entries cited, without tags or fusion partners.", "UniProt F5HJT6, entry or part of it": "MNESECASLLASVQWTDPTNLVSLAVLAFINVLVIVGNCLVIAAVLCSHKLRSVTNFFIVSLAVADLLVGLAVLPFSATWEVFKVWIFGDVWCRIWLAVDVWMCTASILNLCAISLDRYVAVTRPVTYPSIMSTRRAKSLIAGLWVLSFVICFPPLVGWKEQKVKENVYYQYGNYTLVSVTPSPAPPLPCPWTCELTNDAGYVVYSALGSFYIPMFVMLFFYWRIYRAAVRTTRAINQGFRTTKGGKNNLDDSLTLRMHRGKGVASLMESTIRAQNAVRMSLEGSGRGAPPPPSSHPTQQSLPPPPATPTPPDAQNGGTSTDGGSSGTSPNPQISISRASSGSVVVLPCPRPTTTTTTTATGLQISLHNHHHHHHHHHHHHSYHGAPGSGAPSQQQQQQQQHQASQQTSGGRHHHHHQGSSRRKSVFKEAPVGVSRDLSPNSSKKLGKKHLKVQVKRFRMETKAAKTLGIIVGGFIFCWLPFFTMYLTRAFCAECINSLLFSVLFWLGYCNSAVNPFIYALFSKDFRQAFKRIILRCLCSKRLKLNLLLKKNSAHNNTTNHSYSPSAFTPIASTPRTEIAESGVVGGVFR"}, "source": "paper PMC4253978", "about": "“Characterization of the Anopheles gambiae octopamine receptor and discovery of potential agonists and antagonists using a combined computational-experimental approach” (Malaria Journal, 2014)", "target": "AgOAR45B (Anopheles gambiae, UniProt F5HJT6)", "format": "cell-based", "settings": "read-out: IC 50 (antagonist), in the presence of 1 μM octopamine", "protocol": "GloResponse™CRE-luc2P HEK293 reporter cell line (Promega) were maintained as adherent culture at 37°C, 5% CO2 in DMEM (Invitrogen) supplemented with 10% fetal calf serum (Atlanta), and […] hygromycin B. Transfection of cells was carried out using the Amaxa Nucleofector kit per the manufacturer’s instructions. […] Stable lines were created by applying […] G418 for three weeks. Stable clones of AgOAR45B expressing HEK293 reporter cells were created through two rounds of limiting dilution cloning.\nIntracellular cAMP increase was monitored through a CRE-luc reporter construct in HEK293 cells (Promega). Stable cell lines were plated at a density of 4×10^4 cells per well in white 96-well assay plates (Corning, Cat. #3917). Cells were immediately treated with the various compounds, and returned to the incubator for four hours before being assayed. cAMP was quantified through luciferase production using the Dual-Glo luciferase assay kit (Promega) following the manufacturer’s instructions. Luciferase units were normalized to the cell number using the internal Rluc construct in the pF9A expression plasmid.", "data": [{"smiles": "CN1CCC(=C2c3ccccc3C=Cc3ccccc32)CC1", "note": "[Cyproheptadine, cyproheptadine]", "values": [{"measurement": "IC50", "result": 14, "unit": "µM"}]}]}
